The numbers were not newly measured in patent US20210145731A1, “MULTIMODAL COMPOSITIONS AND METHODS OF TREATMENT” (AQUESTIVE THERAPEUTICS, INC., priority 2019, published 2021), which cites them from elsewhere.

Structures are written as SMILES. Like-named read-outs stand apart in the source and are kept apart here. Where only a bound is given, the exact number is not on record here.

For data set [1] the following is noted: delivered orally.
Data set [2] has as its system seizure threshold. Particulars: rats; Dhir and Rogawski 2018.

For the molecule `CN1C(=O)CN=C(c2ccccc2)c2cc(Cl)ccc21` [diazepam], the onset of absorption in data set [1] was no more than 15 min. Moreover, in data set [1] (after a moderate fat meal), the Tmax was 2 to 3 h and the onset of absorption entry is recorded as “approximately 45 min”. For the same molecule, in data set [2], the “plasma diazepam concentration associated with seizure threshold elevation” value was roughly 70 ng/mL.

Broadly, the Tmax is the time at which the peak concentration occurs.
